Measured values published in the supplement of paper PMC10849652.
The list shows a part of the results.

By UniProt entry, the sequences of proteins in these tests, tags left out. Where a name states a change or a piece, a line headed by the entry shows the natural chain unless it says otherwise.
UniProt Q9UI42: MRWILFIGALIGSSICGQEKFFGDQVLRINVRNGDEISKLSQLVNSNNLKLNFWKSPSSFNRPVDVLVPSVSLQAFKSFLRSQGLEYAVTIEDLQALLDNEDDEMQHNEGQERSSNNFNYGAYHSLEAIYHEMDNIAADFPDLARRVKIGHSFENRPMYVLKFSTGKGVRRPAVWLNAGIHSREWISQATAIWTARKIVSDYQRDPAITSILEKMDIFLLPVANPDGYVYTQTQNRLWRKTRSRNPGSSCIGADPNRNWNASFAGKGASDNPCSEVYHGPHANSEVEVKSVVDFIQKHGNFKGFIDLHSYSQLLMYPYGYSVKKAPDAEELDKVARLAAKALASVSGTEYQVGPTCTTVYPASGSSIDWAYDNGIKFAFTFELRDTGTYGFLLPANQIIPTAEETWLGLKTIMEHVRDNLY
UniProt P02452, whole entry, looked up: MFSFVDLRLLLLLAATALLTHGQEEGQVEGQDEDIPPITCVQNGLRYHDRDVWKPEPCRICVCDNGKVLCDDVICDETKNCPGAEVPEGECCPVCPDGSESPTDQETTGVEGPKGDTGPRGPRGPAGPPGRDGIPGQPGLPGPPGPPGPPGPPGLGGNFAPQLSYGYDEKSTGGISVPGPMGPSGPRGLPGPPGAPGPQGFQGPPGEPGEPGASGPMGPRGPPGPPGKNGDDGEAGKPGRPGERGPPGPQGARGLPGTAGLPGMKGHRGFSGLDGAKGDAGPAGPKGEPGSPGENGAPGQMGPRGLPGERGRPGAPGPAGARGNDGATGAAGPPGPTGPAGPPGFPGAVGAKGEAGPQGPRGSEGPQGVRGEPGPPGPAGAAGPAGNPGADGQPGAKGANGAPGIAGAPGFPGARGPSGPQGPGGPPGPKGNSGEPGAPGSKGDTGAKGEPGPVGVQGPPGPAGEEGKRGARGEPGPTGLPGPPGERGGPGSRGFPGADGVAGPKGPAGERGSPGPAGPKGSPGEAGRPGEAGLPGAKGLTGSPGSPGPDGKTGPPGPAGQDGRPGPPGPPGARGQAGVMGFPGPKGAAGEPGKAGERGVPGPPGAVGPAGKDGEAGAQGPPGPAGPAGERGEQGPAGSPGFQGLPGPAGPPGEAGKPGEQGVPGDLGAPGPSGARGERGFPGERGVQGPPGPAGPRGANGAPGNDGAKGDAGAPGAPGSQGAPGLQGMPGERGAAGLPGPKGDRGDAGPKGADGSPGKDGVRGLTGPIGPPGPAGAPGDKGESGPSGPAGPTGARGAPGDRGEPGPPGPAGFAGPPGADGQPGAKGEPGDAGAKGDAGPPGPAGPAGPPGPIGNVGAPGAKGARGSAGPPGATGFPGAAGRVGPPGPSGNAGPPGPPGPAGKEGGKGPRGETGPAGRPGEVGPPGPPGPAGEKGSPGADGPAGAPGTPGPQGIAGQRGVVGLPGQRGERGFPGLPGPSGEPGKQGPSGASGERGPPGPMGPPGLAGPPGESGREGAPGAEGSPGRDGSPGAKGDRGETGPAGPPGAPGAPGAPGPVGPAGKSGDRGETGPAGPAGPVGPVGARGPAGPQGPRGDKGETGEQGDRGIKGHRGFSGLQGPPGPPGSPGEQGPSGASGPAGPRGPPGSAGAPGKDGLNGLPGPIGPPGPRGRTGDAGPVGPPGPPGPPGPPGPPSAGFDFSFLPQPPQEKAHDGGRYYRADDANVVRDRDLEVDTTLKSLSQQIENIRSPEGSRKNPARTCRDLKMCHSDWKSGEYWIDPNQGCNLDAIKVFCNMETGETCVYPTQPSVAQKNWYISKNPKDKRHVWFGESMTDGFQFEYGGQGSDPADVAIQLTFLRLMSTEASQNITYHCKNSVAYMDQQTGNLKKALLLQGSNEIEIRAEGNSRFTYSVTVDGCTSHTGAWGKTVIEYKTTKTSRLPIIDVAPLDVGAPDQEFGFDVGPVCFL
UniProt Q86YQ8: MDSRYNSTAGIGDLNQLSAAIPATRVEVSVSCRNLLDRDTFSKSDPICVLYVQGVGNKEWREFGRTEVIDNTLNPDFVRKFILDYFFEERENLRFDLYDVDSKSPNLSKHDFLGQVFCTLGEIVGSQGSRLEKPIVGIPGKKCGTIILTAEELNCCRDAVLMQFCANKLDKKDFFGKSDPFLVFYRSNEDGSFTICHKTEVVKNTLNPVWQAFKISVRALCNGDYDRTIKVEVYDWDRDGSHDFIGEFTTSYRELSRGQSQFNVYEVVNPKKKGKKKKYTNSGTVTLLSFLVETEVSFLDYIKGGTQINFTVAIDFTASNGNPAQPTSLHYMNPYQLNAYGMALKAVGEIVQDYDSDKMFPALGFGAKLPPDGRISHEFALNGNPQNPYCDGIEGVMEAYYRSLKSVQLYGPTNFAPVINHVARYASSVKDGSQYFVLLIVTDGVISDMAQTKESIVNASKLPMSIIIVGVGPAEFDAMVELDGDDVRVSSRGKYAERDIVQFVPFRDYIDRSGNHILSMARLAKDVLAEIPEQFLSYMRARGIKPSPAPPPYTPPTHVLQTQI
UniProt Q96I36: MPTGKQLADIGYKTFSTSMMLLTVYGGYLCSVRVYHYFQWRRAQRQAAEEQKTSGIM
UniProt Q86VU5: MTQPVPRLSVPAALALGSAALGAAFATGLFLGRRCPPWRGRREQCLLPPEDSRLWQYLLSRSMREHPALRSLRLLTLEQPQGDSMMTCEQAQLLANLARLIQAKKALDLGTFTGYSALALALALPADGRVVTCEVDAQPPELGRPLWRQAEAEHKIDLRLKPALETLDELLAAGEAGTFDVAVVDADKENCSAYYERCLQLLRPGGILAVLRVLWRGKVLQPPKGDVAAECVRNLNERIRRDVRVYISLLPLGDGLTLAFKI
UniProt Q9P003: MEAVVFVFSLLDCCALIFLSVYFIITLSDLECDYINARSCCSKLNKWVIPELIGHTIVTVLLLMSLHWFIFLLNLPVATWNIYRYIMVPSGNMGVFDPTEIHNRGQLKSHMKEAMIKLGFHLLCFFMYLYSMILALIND
UniProt Q8NHY2, whole entry, looked up: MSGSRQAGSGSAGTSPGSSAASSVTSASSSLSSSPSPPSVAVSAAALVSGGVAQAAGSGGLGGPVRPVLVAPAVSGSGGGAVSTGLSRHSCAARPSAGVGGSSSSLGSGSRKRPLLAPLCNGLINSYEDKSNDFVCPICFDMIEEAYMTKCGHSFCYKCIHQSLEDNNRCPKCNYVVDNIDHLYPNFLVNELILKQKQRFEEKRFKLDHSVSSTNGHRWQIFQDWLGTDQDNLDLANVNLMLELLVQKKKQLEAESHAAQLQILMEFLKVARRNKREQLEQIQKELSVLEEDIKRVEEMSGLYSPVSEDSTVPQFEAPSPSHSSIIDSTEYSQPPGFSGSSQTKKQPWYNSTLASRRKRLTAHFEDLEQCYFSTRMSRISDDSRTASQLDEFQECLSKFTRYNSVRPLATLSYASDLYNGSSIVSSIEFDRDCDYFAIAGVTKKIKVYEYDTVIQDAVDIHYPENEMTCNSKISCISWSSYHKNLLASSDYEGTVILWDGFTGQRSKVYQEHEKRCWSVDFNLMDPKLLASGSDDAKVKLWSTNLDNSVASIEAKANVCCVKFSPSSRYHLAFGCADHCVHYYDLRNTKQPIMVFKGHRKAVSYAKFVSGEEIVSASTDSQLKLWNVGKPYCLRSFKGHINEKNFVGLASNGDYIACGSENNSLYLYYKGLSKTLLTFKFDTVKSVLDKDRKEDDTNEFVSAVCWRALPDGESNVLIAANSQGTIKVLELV
UniProt Q9H8M5: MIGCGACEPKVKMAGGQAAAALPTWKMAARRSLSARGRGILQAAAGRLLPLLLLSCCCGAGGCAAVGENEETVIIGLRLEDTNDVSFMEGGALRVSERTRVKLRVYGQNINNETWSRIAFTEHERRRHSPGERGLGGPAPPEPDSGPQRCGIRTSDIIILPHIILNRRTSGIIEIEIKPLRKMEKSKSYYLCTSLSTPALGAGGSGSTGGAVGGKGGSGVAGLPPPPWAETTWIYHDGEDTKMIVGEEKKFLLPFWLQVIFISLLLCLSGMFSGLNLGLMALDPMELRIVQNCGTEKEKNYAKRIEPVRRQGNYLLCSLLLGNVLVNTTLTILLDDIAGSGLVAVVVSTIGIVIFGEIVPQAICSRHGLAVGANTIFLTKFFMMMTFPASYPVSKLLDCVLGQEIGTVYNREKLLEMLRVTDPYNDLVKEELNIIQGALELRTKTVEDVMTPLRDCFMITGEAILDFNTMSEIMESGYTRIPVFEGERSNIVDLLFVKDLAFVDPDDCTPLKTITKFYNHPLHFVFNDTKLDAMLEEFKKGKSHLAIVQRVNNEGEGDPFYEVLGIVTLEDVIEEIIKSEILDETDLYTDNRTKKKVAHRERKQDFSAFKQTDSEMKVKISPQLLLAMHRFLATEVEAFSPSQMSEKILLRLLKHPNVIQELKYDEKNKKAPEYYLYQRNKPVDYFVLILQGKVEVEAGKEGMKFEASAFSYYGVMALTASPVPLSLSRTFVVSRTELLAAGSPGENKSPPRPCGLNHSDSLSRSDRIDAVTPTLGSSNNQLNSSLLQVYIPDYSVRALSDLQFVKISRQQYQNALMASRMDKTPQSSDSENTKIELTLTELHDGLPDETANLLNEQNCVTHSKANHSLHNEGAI
UniProt Q6QEF8, whole entry, looked up: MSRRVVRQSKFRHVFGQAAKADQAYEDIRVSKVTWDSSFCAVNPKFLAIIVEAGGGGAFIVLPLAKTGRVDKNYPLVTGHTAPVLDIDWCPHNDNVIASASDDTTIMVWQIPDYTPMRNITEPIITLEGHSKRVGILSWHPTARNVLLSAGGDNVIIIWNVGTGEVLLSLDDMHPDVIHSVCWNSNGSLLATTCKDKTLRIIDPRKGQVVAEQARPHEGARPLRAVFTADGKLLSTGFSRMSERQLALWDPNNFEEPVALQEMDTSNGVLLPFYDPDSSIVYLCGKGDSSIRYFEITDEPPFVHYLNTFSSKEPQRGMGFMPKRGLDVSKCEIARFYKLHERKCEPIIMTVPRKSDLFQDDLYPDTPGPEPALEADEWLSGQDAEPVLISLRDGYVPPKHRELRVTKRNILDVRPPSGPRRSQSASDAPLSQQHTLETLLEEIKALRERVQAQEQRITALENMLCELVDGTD
UniProt Q12887: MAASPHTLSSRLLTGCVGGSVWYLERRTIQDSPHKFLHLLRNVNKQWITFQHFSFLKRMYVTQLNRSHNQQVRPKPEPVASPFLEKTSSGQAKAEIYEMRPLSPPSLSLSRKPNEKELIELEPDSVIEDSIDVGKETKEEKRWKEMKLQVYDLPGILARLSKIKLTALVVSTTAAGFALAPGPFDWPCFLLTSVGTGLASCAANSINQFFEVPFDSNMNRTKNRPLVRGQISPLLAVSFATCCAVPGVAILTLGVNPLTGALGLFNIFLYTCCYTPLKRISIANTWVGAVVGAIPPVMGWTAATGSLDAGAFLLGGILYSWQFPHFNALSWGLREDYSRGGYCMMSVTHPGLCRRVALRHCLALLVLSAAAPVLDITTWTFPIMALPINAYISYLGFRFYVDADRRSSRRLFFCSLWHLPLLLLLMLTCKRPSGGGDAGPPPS
UniProt Q9NZJ6: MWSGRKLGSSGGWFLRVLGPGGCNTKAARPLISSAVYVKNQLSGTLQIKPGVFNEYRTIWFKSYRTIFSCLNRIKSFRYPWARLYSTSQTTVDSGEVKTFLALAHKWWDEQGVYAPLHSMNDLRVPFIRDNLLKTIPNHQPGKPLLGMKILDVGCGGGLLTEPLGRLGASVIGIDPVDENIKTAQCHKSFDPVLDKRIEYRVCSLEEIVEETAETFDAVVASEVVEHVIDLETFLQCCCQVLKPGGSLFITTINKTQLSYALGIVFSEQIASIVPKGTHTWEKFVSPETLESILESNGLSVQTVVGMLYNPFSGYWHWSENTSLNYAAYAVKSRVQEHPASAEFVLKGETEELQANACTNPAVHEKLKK
UniProt Q7Z4G1, whole entry, looked up: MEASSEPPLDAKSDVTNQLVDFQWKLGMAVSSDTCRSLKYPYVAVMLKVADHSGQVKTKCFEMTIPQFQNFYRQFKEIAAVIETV

Key:
Assay in all cases: log2 fold change, soluble protein after heating vs DMSO (PISA); higher = thermal stabilisation; K562 lysate, 10 uM; active = over 0.2 and 3.5 SD of the protein, either way, in both replicates (recomputed)
[1] = compound: CN1CC[C@H](c2c(O)cc(O)c3c(=O)cc(-c4ccccc4Cl)oc23)[C@H](O)C1 [alvocidib]
Summary of the method: (§1)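 Soluble protein was defined as the supernatant remaining after 21,000xg for 90 min, following pooling of heated aliquots and adjustment to 0.5% NP-40 at 4°C. Before that, crude K562 extract at 1 mg/mL protein in PBS pH 7.4 with 1 mM MgCl2 was treated with 10 μM compound for 30 min and heated for 3 min across 48°C-58°C. Quantification used TMTpro 16plex LC-MS/MS with channel sums equalised, and values are log-two fold changes in thermal stability relative to solvent controls from duplicates.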

[2] = compound: CN1CCc2c(c3ccccc3n2Cc2ccc(C(=O)NO)cc2)C1 [Tubastatin A]
Summary of the method: as §1

[3] = compound: CNC(=O)C1=CC=CC=C1NC2=NC(=NC=C2Cl)NC3=C(C=C(C=C3)N4CCOCC4)OC
Summary of the method: as §1

[4] = compound: COc1cc2nc(-c3cc(F)ccc3O)nc(N[C@@H]3CNC[C@H]3C(C)(C)O)c2cc1OC
Summary of the method: as §1

[5] = compound: CS(=O)(=O)CCNCc1ccc(-c2ccc3ncnc(Nc4ccc(OCc5cccc(F)c5)c(Cl)c4)c3c2)o1 [lapatinib]
Summary of the method: as §1

[6] = compound: CS(=O)(=O)N1CCN(Cc2cc3nc(-c4cccc5[nH]ncc45)nc(N4CCOCC4)c3s2)CC1 [pictilisib]
Summary of the method: as §1

[7] = compound: C[C@@H](Oc1cc(-c2cnn(C3CCNCC3)c2)cnc1N)c1c(Cl)ccc(F)c1Cl [crizotinib]
Summary of the method: as §1

[8] = compound: C[C@H](C1=CC=C(C=C1)C(=O)NC2=C3C=CNC3=NC=C2)N
Summary of the method: as §1

[9] = compound: Cc1cc(Nc2cc(CN3CCOCC3)c3nc(C)c(Cc4ccc(Cl)cc4F)n3n2)n[nH]1 [gandotinib]
Summary of the method: as §1

[10] = compound: Cc1ccc(-n2nc(C(C)(C)C)cc2NC(=O)Nc2ccc(OCCN3CCOCC3)c3ccccc23)cc1 [doramapimod]
Summary of the method: as §1

[11] = compound: Cc1ccc(NC(=O)c2ccc(CN3CC[C@H](N(C)C)C3)c(C(F)(F)F)c2)cc1Nc1nccc(-c2cncnc2)n1 [bafetinib]
Summary of the method: as §1

[12] = compound: Cc1cccc(CC(=O)N2CCc3c2ccc(-c2cn(C)c4ncnc(N)c24)c3F)n1
Summary of the method: as §1

[13] = compound: CNC(=O)c1ccc(Nc2ncc(C(F)(F)F)c(NCc3nccnc3N(C)S(C)(=O)=O)n2)cc1 [defactinib]
Summary of the method: as §1

[14] = compound: CNc1nc(-c2ccc3c(N)n[nH]c3c2)cc(N2C[C@@H](C(=O)NC3CCCCC3)CC[C@H]2C)n1
Summary of the method: as §1

[15] = compound: COc1cc(Nc2ncc3c(n2)-c2ccc(Cl)cc2C(c2c(F)cccc2OC)=NC3)ccc1C(=O)O [alisertib]
Summary of the method: as §1

[16] = compound: COc1cc2ncnc(Nc3ccc(F)c(Cl)c3)c2cc1OCCCN1CCOCC1 [gefitinib]
Summary of the method: as §1

[17] = compound: C[C@H](Nc1ncnc2nc[nH]c12)c1cc2cccc(Cl)c2c(=O)n1-c1ccccc1 [duvelisib]
Summary of the method: as §1

[18] = compound: COC(=O)N[C@@H](C)CNc1nccc(-c2cn(C(C)C)nc2-c2cc(Cl)cc(NS(C)(=O)=O)c2F)n1 [encorafenib]
Summary of the method: as §1

[19] = compound: COC(=O)[C@H](CCSC)NC(=O)C1=C(C=C(C=C1)NC[C@H](CS)N)C2=CC=CC=C2
Summary of the method: as §1

[20] = compound: Cc1cc(Nc2cc(N3CCN(C)CC3)nc(Sc3ccc(NC(=O)C4CC4)cc3)n2)n[nH]1 [tozasertib]
Summary of the method: as §1

Measured: log2 fold change

CPA4 (UniProt Q9UI42)
inactive: [1] 0.113 | [2] -0.101 | [3] -0.182 | [4] -0.094 | [5] 0.125 | [6] 0.393 | [7] 0.053 | [8] 0.239 | [9] 0.241 | [10] -0.25 | [11] 0.104 | [12] -0.112

COL1A1 (UniProt P02452)
inactive: [1] -0.024 | [3] -0.196 | [8] 0.046 | [9] 0.032 | [12] -0.072

CNOT2 (UniProt F8VRS8)
inactive: [3] 0.004

CPNE8 (UniProt Q86YQ8)
inactive: [1] 0.014 | [2] 0.095 | [3] 0.004 | [13] -0.09 | [14] -0.036 | [15] 0.097 | [4] 0.211 | [16] -0.005 | [5] -0.332 | [6] -0.103 | [7] 0.005 | [8] -0.086 | [17] 0.137 | [9] 0.039 | [10] -0.021 | [11] 0.048 | [12] 0.014

COX14 (UniProt Q96I36)
inactive: [3] 0.031 | [15] 0.036 | [4] 0.001 | [16] -0.074 | [5] -0.052 | [7] -0.071 | [10] 0.037

COMTD1 (UniProt Q86VU5)
inactive: [2] -0.158 | [3] 0.147 | [13] -0.048 | [14] 0.014 | [18] 0.001 | [19] 0.257 | [15] 0.069 | [4] -0.005 | [16] 0.125 | [5] 0.113 | [6] 0.033 | [7] -0.229 | [17] 0.028 | [20] 0.049 | [10] -0.029 | [11] -0.119

CNIH4 (UniProt Q9P003)
inactive: [2] 0.1 | [3] 0.048 | [13] 0.442 | [14] 0.049 | [18] 0.06 | [19] -0.249 | [15] 0.1 | [4] 0.031 | [16] 0.17 | [5] 0.005 | [6] -0.139 | [7] -0.055 | [17] 0.092 | [20] -0.06 | [10] -0.082 | [11] -0.248

COP1 (UniProt Q8NHY2)
inactive: [1] -0.03 | [2] 0.042 | [3] -0.058 | [14] -0.057 | [15] -0.012 | [4] 0.014 | [16] 0 | [5] 0.006 | [7] -0.007 | [8] -0.078 | [17] -0.017 | [9] 0.105 | [10] -0.055 | [12] -0.124

CNNM2 (UniProt Q9H8M5)
inactive: [1] -0.049 | [2] -0.105 | [3] 0.007 | [13] 0.065 | [14] -0.01 | [18] -0.048 | [19] 0.033 | [4] -0.003 | [5] 0.006 | [7] 0.021 | [8] -0.039 | [17] 0.041 | [9] -0.064 | [20] -0.078 | [10] -0.026 | [12] 0.036

CORO6 isoform 5 (UniProt Q6QEF8)
inactive: [1] 0.083 | [15] 0.039 | [4] 0.045 | [16] -0.081 | [5] -0.06 | [6] 0.017 | [7] -0.111 | [8] 0.235 | [9] -0.287 | [10] 0.067 | [11] 0 | [12] -0.055

COX10 (UniProt Q12887)
inactive: [2] 0.072 | [14] 0.174 | [18] -0.22 | [19] -0.157 | [7] -0.01 | [17] 0.06 | [20] 0.004 | [10] -0.039

COQ3 (UniProt Q9NZJ6)
inactive: [1] 0.002 | [2] -0.066 | [3] 0.031 | [13] -0.011 | [18] 0.076 | [19] -0.101 | [15] 0.05 | [4] 0.019 | [16] 0.017 | [5] 0.016 | [6] 0.008 | [8] -0.031 | [9] -0.002 | [20] 0.005 | [11] -0.054 | [12] 0.044

COMMD3-BMI1 (UniProt R4GMX3)
inactive: [2] -0.217 | [3] 0.031 | [14] 0.089 | [18] 0.153 | [19] -0.247 | [15] -0.025 | [4] -0.03 | [16] -0.103 | [5] -0.042 | [6] -0.088 | [7] -0.044 | [17] 0.017 | [20] 0.083 | [10] 0.011 | [11] -0.021

COMMD6 isoform 2 (UniProt Q7Z4G1)
inactive: [1] 0.063 | [2] -0.064 | [3] 0.054 | [14] -0.133 | [18] 0.046 | [19] -0.035 | [15] -0.051 | [4] 0.071 | [16] -0.159 | [5] 0.109 | [6] 0.023 | [7] -0.042 | [8] 0.186 | [17] -0.012 | [9] -0.149 | [20] -0.098 | [10] 0.006 | [11] -0.146 | [12] 0.011

Quoted from the listing (two entries):
CORO6 isoform 5 (UniProt Q6QEF8)
inactive: [1] 0.083 | [15] 0.039 | [4] 0.045 | [16] -0.081 | [5] -0.06 | [6] 0.017 | [7] -0.111 | [8] 0.235 | [9] -0.287 | [10] 0.067 | [11] 0 | [12] -0.055

COX10 (UniProt Q12887)
inactive: [2] 0.072 | [14] 0.174 | [18] -0.22 | [19] -0.157 | [7] -0.01 | [17] 0.06 | [20] 0.004 | [10] -0.039
